Laboratory results: PubChem BioAssay AID1259300 (Sanger Institute, 2017)

Aim: 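siRNA screen of kinases and common colorectal cancer mutant genes, alone or with drugs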 (primary screen)
Cell system: HCT15 colorectal cancer cells
Knock-down reagent: siRNA pool against human genes
Treatment: anchor drug or DMSO vehicle added 24 h after seeding: BYL719 1 µM, cetuximab 5 µg/ml, trametinib 10 nM; drug doses chosen to barely affect viability alone
Measured: 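Replicate-mean viability relative to non-targeting pool control with robust z-score for knock-down without drug; per-drug synergy scores for BYL719 (1 µM), cetuximab (5 µg/ml), trametinib (10 nM)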
Reading the numbers: viability z-score, siRNA alone: higher = more viable cells after knock-down; viability vs non-targeting, siRNA alone: higher = more viable cells; synergy score with BYL719 and synergy score with cetuximab and synergy score with trametinib: higher = stronger synergy of knock-down with drug
Hit rule: 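a knock-down without drug that drives the robust viability z-score under -3 is active, i.e. essential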
Meaning of the calls: active = essential: knock-down alone lowers viability (z below -3); inactive = no strong viability loss with knock-down alone
The whole screen tested 794 reagents; this is a part drawn at random. Over the whole deposit, 18 (2.3%) are marked active. 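Calls rest on knock-down alone, not drug synergy; depositor treated synergy scores above 0.15 as synergistic; drug doses alone had little viability effect.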 A number with no mark means an inactive call. No viability above 1 is reported: the scale is capped. Reagent sequences are not shown. Not stated in the record: the amount of reagent, the time to read-out.

| gene | viability z-score, siRNA alone | viability vs non-targeting, siRNA alone | synergy score with BYL719 | synergy score with cetuximab | synergy score with trametinib |
| --- | --- | --- | --- | --- | --- |
| MAGI1 (GeneID 9223) | 0.302 | 0.977 | 0.0446 | 0.0398 | 0.0118 |
| CDKN2D (GeneID 1032) | -0.908 | 0.889 | 0.0584 | 0.0256 | -0.00745 |
| DBF4 (GeneID 10926) | 0.57 | 0.996 | 0.0715 | 0.0982 | -0.102 |
| DDR1 (GeneID 780) | 0.625 | 1 | -0.0253 | 0.0226 | 0.0111 |
| MAP3K15 (GeneID 389840) | 0.625 | 1 | 0.18 | 0.0212 | -0.0553 |
| MATK (GeneID 4145) | 0.625 | 1 | 0.0115 | 0.123 | -0.0984 |
| SMC1A (GeneID 8243) | 0.625 | 1 | 0.362 | 0.157 | -0.0319 |
| CTCF (GeneID 10664) | -1.56 | 0.841 | 0.0966 | -0.0104 | 0.0154 |
| PDIK1L (GeneID 149420) | 0.625 | 1 | 0.255 | 0.0437 | 0.0206 |
| RSKR (GeneID 124923) | 0.609 | 0.999 | 0.00226 | 0.0139 | 0.0404 |
| CDK17 (GeneID 5128) | -0.968 | 0.884 | 0.148 | -0.116 | -0.162 |
| NUP107 (GeneID 57122) | -4.36 (active) | 0.637 | 0.0658 | 0.179 | 0.0108 |
| SNRK (GeneID 54861) | -1.11 | 0.874 | 0.0837 | -0.0788 | 0.0125 |
| PRKAR1A (GeneID 5573) | 0.625 | 1 | 0.1 | 0.0389 | 0.0615 |
| UHMK1 (GeneID 127933) | 0.625 | 1 | 0.0106 | 0.168 | -0.0241 |
| CDK12 (GeneID 51755) | -0.314 | 0.932 | 0.0429 | 0.0628 | -0.0178 |
| MAST3 (GeneID 23031) | -0.446 | 0.922 | -0.07 | 0.0611 | -0.0767 |
| TYRO3 (GeneID 7301) | 0.625 | 1 | 0.173 | 0.0869 | 0.0261 |
| PEAK1 (GeneID 79834) | 0.103 | 0.962 | 0.18 | 0.0401 | -0.0224 |
| BCR (GeneID 613) | 0.625 | 1 | 0.0042 | 0.0708 | 0.0997 |

An excerpt taken from the entries so far, for reference:
| gene | viability z-score, siRNA alone | viability vs non-targeting, siRNA alone | synergy score with BYL719 | synergy score with cetuximab | synergy score with trametinib |
| --- | --- | --- | --- | --- | --- |
| UHMK1 (GeneID 127933) | 0.625 | 1 | 0.0106 | 0.168 | -0.0241 |
| CDK12 (GeneID 51755) | -0.314 | 0.932 | 0.0429 | 0.0628 | -0.0178 |
